In all, about 400,000 compounds went through this assay and about 3,700 (0.93%) were called active. The shares of active, inactive and inconclusive entries below differ from those in the screen. The call rests on the fitted dose curve; in most records, active means well fitted inhibition curve with a large enough effect; inconclusive means small, poorly fitted or top-dose-only effect, or another doubt; inactive means no such curve, though single readings can be large or run the other way. Potencies of inconclusive entries are doubtful fits and often do not repeat.
These molecules were tested against Vitamin D3 receptor (Homo sapiens) (UniProt P11473) (assay: Inhibitors of the vitamin D receptor (VDR): qHTS). Conditions: VDR-SRC2-3 peptide fluorescence polarization, 2 h; max response, negative = inhibition: hits give low values.
Summary of the method: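 The screen uses fluorescence polarization to detect compounds that interfere with recruitment of the SRC2-3 coactivator peptide to VDR; plates are read after 2 h at room temperature.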
On the % scale 0 is the no-effect control and ±100 the full control effect; potency means the concentration at half of the fitted maximal effect.

Protein sequences, listed by entry. Tags and fused reporters are not part of them. Lines headed by an entry give the natural chain unless they say otherwise; changes in a name come on top.
UniProt P11473: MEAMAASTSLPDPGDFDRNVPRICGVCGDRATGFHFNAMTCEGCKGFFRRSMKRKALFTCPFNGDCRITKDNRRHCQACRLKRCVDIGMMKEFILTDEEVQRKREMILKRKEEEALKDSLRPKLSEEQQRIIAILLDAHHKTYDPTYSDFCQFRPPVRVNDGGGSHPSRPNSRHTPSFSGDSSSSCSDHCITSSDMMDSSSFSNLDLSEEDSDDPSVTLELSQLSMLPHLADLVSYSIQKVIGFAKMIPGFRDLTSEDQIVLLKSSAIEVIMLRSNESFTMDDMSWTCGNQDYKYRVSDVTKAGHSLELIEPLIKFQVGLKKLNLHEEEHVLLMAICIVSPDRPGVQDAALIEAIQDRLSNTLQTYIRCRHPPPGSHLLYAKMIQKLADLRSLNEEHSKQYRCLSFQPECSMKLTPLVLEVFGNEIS

| Compound | Potency | max response, negative = inhibition |
| --- | --- | --- |
| COC(=O)c1cnn(-c2ccc(F)cc2F)c1/C=N/NC(N)=S | inconclusive: 39.8 µM [inhibitor, partial curve, poor fit] | – |
| CCC(C)C(NC(=O)c1ccccc1NC(=O)c1ccccc1)C(=O)O (centres undefined) | inconclusive: 15.8 µM [inhibitor, single point] | – |
| CC1(c2nnc(Cc3ccccc3)o2)CC(c2ccccc2[N+](=O)[O-])=NO1 (centres undefined) | inconclusive: 100 µM [inhibitor, partial curve, poor fit] | – |
| CCN(C(=O)Cn1nc2c3cc(F)ccc3n(Cc3cccc(C)c3)cc-2c1=O)c1cccc(C)c1 | – | inactive: 5.22% |
| Cc1cc(C(=O)N2CCCC(N3CCN(Cc4ccc5c(c4)OCO5)CC3)C2)n[nH]1 (centres undefined) | – | inactive: -11.4% |
| CC1=C(C(=O)Nc2ccccc2F)C(c2cccs2)C2=C(CCCC2=O)N1 (centres undefined) | inconclusive: 22.4 µM [inhibitor, partial curve, poor fit] | – |
| COC(=O)CN1C(=O)S/C(=C/c2ccc(N3CCCCC3)o2)C1=O | active: 31.6 µM | – |
| CSCCC(NC(=O)c1ccccc1)C(=O)OCC(=O)Nc1ccc(C)c(Cl)c1 (centres undefined) | inconclusive: 22.4 µM [inhibitor, partial curve, poor fit] | – |
| CC1Cc2ccccc2N1C(=S)Nc1ccc(S(N)(=O)=O)cc1 (centres undefined) | inconclusive: 100 µM [inhibitor, single point] | – |
| Cc1cccc(N2CCN(C(=S)c3ccc([N+](=O)[O-])cc3)CC2)c1 | inconclusive: 79.4 µM [inhibitor, partial curve, poor fit] | – |
| COc1cc(C(=S)N2CCOCC2)cc(OC)c1OC(=O)Cc1ccc(F)cc1 | inconclusive: 79.4 µM [inhibitor, single point] | – |
| CCC(C(=O)NCc1cccnc1)n1nc(C)c2sc3ccccc3c2c1=O (centres undefined) | inconclusive: 14.1 µM [inhibitor, partial curve, poor fit] | – |
| Cc1ccn2c(=O)nc(SCC(=O)OCc3ccccc3)nc2c1 | – | inactive: -3.94% |
| CC(=O)C1=C(C)NC(SCC(N)=O)=C(C#N)C1CC(C)C (centres undefined) | active: 79.4 µM | – |
| CCOC(=O)c1c(NC(=O)Nc2ccccc2)sc(C)c1C | – | inactive: -6.17% |
| Cc1ccc(CNC(=O)CSc2nccn(-c3ccc(C)c(F)c3)c2=O)cc1 | inconclusive: 89.1 µM [inhibitor, single point] | – |
| COc1ccc(CNc2ncncc2-c2ccccc2C)c(OC)c1 | inconclusive: 39.8 µM [inhibitor, partial curve] | – |
| O=C(O)c1cnc2ccccc2n1 | inconclusive: 89.1 µM [inhibitor, single point] | – |
| COC(=O)c1ccc(NC(=O)CSc2nnc(-c3cccnc3)o2)cc1 | inconclusive: 70.8 µM [inhibitor, partial curve] | – |
| Cc1cc(=O)[nH]c(SCC(=O)Nc2nc3ccccc3s2)n1 | inconclusive: 79.4 µM [inhibitor, single point] | – |
| Cc1cc(-c2cc(-c3ccc(Cl)cc3)nc(N)c2C#N)co1 | inconclusive: 89.1 µM [inhibitor, single point] | – |
| Cc1nn(-c2ccc(Cl)cc2)c(Cl)c1/C=N/NC(=O)c1ccc(NS(=O)(=O)c2cccs2)cc1 | inconclusive: 28.2 µM [inhibitor, partial curve, poor fit] | – |

| Compound | Potency | max response, negative = inhibition |
| --- | --- | --- |
| O=C1N=C(N2CCCC2)S/C1=C\c1ccccc1 | inconclusive: 63.1 µM [inhibitor, single point] | – |
| N#Cc1c(C#N)c(O)c2ccccc2c1O | active: 28.2 µM | – |
| CCC(=O)Nc1cccc(NC(=O)c2cccc([N+](=O)[O-])c2)c1 | – | inactive: 1.38% |
| Cc1ccc(NC(=S)NCC23C=CC(O2)C2C(=O)N(c4ccc(C)cc4)C(=O)C23)cc1 (centres undefined) | inconclusive: 79.4 µM [inhibitor, single point] | – |
| N#CC1=C(N)C(C#N)(C#N)[C@H](c2ccoc2)[C@H]2CN(Cc3ccccc3)CC=C12 | inconclusive: 39.8 µM [inhibitor, partial curve, poor fit] | – |
| c1cc2c(cc1NC1CCCCCC1)OCO2 | inconclusive: 100 µM [inhibitor, single point] | – |
| CC(C)Cn1c(CN2CCN(C(=O)c3ccco3)CC2)nc2c1c(=O)n(C)c(=O)n2C | inconclusive: 89.1 µM [inhibitor, single point] | – |
| CC(=O)c1ccccc1NC(=O)c1ccc(N2CCCC2=O)cc1 | inconclusive: 79.4 µM [inhibitor, single point] | – |
| Cc1ccc(NC(=O)c2ccco2)c(OCc2cc(=O)n3cc(C)sc3n2)c1 | – | inactive: -5.76% |
| CC(C)CN(C(=O)CSc1n[nH]c(-c2cccs2)n1)C1CCS(=O)(=O)C1 (centres undefined) | inconclusive: 79.4 µM [inhibitor, single point] | – |
| CC(=O)Nc1cc(O)c2nonc2c1O | active: 4.47 µM | – |
| COc1ccc(C2CC(=O)N3CN(C4CCCCC4)CSC3=C2C#N)cc1 (centres undefined) | active: 44.7 µM | – |
| COc1ccc(NC(=O)CCCS(=O)(=O)c2nc(-c3ccc(OC)c(OC)c3)cc(C(F)(F)F)n2)cc1OC | active: 79.4 µM | – |
| O=C1N(Cc2ccccc2)CC2(Br)COCOC12O (centres undefined) | inconclusive: 4.47 µM [inhibitor, full curve, poor fit] | – |
| O=C(Nc1sc2c(c1C(=O)c1ccccc1)CCCC2)c1cccnc1 | inconclusive: 28.2 µM [inhibitor, partial curve, poor fit] | – |
| O=C(c1cccs1)N1CCN(C/C=C/c2ccccc2)CC1 | – | inactive: -1.07% |
| C/C(=N\NC(=O)CC#N)C1COc2ccccc2O1 (centres undefined) | inconclusive: 79.4 µM [inhibitor, single point] | – |
| Clc1ccc(C2=NNC(=NCC3CCCO3)SC2)cc1 (centres undefined) | inconclusive: 56.2 µM [inhibitor, partial curve] | – |
| O=C(Nc1nnc(COc2ccc(Cl)cc2)s1)c1ccco1 | active: 28.2 µM | – |
| CN1CCN(C(=S)NC(=O)c2ccc(Cl)cc2)CC1 | – | inactive: -7.63% |
| CCCSc1cc(NCCOC(=O)CCC)c([N+](=O)[O-])c2nonc12 | inconclusive: 56.2 µM [inhibitor, partial curve, poor fit] | – |
| Cc1cccc(C(CC(=O)NCC2(c3ccccc3)CCCC2)c2ccccc2)c1O (centres undefined) | – | inactive: -3.18% |

Entries of single compounds from above.
Cc1cc(C(=O)N2CCCC(N3CCN(Cc4ccc5c(c4)OCO5)CC3)C2)n[nH]1 (centres undefined) is entered as max response, negative = inhibition: inactive: -11.4%
CC(=O)Nc1cc(O)c2nonc2c1O is entered as Potency: active: 4.47 µM
Cc1cc(=O)[nH]c(SCC(=O)Nc2nc3ccccc3s2)n1 is entered as Potency: inconclusive: 79.4 µM [inhibitor, single point]
Cc1ccc(NC(=O)c2ccco2)c(OCc2cc(=O)n3cc(C)sc3n2)c1 is entered as max response, negative = inhibition: inactive: -5.76%

Following part.

| Compound | Potency | max response, negative = inhibition |
| --- | --- | --- |
| CN1CCc2c(sc3c2C(=O)NC(c2cccc(OC(=O)c4cccs4)c2)N3)C1 (centres undefined) | inconclusive: 89.1 µM [inhibitor, partial curve, poor fit] | – |
| CCn1nc(NS(=O)(=O)c2ccccc2)c2cc3ccccc3nc21 | inconclusive: 35.5 µM [inhibitor, partial curve, poor fit] | – |
| Cc1ccccc1OCC(=O)N/N=C/C=C/c1ccccc1 | inconclusive: 39.8 µM [inhibitor, single point] | – |
| Nc1cnccc1C(=O)O | inconclusive: 50.1 µM [inhibitor, partial curve, poor fit] | – |
| OCC1(CCc2ccccc2)CCN(Cc2cc(F)ccc2-n2cccn2)CC1 | inconclusive: 100 µM [inhibitor, partial curve, poor fit] | – |
| COc1ccc(-c2nnc(SCC(=O)NC(C)c3ccccc3)o2)cc1 (centres undefined) | inconclusive: 56.2 µM [inhibitor, partial curve, poor fit] | – |
| COCCN(C(=O)/C=C/c1ccccc1)c1c(N)n(Cc2ccccc2)c(=O)[nH]c1=O | inconclusive: 3.16 µM [inhibitor, full curve, poor fit] | – |
| COc1ccc(N2C(=O)/C(=C/c3cccs3)NC2=S)cc1 | inconclusive: 44.7 µM [inhibitor, partial curve, poor fit] | – |
| COc1ccccc1CNc1ncnc2ccc(-c3ccc(N(C)C)cc3)cc12 | inconclusive: 89.1 µM [inhibitor, single point] | – |
| O=C(C1CCC(Cn2c(=O)[nH]c3ccccc3c2=O)CC1)N1CCN(c2ccccc2)CC1 (centres undefined) | inconclusive: 0.631 µM [inhibitor, full curve, poor fit] | – |
| CCc1ccc(/C=C2/SC(=S)NC2=O)cc1 | inconclusive: 31.6 µM [inhibitor, partial curve, poor fit] | – |
| CCOC(=O)c1c(C)[nH]c(C(=O)CSc2nnc(C3CC3)n2N)c1C | inconclusive: 15.8 µM [inhibitor, single point] | – |
| CC1CCc2nc(NC(=O)CCSc3ccccc3)sc2C1 (centres undefined) | inconclusive: 89.1 µM [inhibitor, partial curve, poor fit] | – |
| Cc1cc(NC2CCCCC2)nc(NCc2ccccc2)n1 | – | inactive: -0.179% |
| CCC(=O)NC(=S)NNC(=O)c1ccc(NC(=O)c2ccccc2)cc1 | inconclusive: 89.1 µM [inhibitor, single point] | – |
| Cc1ccc2c(c1)[C@H]1[C@H](CO2)[C@H](c2ccccc2)[C@]2(C)C(=O)N(Cc3ccco3)CC(=O)N12 | inconclusive: 89.1 µM [inhibitor, partial curve, poor fit] | – |
| CCc1nnc(NC(=O)CSc2nc3ccccc3c(=O)n2CCCOC)s1 | inconclusive: 5.62 µM [inhibitor, partial curve, poor fit] | – |
| O=S(=O)(c1ccccc1)N1CCCC1c1nc2ccccc2s1 (centres undefined) | inconclusive: 89.1 µM [inhibitor, single point] | – |
| O=C(/C=C/c1ccnc2ccccc12)c1cccs1 | inconclusive: 56.2 µM [inhibitor, partial curve, poor fit] | – |
| C[C@@H]1C[C@](C)(C(=O)c2ccco2)C=C1c1ccco1 | inconclusive: 56.2 µM [inhibitor, partial curve, poor fit] | – |
